Laboratory results from paper PMC3197615.
No constants are given. Whether binding was seen depends on the method and setting. Some results given as binding are weak or reduced against the parent protein; the word gives no strength.

Chains of the proteins cited; added tags and fusions are not shown. Residues count along the entry.
UniProt P52800, residues 29-336: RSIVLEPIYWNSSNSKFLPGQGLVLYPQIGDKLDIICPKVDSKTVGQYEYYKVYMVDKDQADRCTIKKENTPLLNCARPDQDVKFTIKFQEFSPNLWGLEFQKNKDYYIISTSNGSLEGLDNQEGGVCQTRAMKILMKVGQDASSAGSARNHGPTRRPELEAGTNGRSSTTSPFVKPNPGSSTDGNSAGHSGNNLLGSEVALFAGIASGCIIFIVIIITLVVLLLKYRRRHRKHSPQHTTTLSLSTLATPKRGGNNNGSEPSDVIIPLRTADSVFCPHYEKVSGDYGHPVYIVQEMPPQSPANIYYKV
UniProt P29317, residues 24-537: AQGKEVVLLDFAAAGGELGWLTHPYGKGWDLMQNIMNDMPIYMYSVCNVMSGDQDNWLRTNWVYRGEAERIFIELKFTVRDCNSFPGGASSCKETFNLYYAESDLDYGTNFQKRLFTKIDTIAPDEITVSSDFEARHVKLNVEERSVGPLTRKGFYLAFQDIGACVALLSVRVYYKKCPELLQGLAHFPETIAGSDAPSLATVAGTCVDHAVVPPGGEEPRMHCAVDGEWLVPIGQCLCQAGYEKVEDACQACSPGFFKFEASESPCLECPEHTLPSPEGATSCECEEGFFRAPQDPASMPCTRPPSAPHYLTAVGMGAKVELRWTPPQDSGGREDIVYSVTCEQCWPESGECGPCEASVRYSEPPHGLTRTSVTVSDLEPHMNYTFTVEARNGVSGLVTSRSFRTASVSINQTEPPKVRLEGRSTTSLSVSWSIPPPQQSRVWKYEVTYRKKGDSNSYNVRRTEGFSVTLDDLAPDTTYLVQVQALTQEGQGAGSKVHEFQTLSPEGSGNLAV

Columns and labels:
Assay in all cases: flow cytometry on cells; transduced WOP cells incubated 1 h at 37°C in neat supernatant containing EphA2-Fc; detected with Alexa 488 anti mouse IgG
[1] = biological target: T1, human Ephrin A4 on transduced WOP cells (human) (UniProt P52798)
T1 sequence: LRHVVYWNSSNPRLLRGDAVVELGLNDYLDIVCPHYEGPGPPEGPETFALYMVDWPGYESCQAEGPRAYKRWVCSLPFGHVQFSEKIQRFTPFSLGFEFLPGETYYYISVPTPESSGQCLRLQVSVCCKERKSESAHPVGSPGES

[2] = biological target: T2, mouse Ephrin A1 on transduced WOP cells (mouse) (UniProt P52793)
T2 sequence: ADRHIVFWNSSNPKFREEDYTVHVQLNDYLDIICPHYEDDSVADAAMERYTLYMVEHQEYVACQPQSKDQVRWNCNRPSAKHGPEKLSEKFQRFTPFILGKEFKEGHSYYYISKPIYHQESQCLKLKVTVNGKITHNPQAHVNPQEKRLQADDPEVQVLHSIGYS

[3] = biological target: T3, mouse Ephrin A2 on transduced WOP cells (mouse) (UniProt P52801)
T3 sequence: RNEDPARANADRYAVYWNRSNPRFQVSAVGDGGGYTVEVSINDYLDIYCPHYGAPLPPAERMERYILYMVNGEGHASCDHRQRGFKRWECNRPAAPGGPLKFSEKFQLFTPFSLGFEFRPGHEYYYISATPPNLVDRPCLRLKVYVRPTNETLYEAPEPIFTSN

[4] = biological target: T4, mouse Ephrin A3 on transduced WOP cells (mouse) (UniProt O08545)
T4 sequence: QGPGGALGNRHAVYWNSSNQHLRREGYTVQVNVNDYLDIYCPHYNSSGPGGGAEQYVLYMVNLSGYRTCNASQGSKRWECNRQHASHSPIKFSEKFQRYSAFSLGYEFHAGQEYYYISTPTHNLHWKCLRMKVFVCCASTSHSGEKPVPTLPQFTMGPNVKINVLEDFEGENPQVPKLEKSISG

[5] = biological target: T5, mouse Ephrin A4 on transduced WOP cells (mouse) (UniProt O08542)
T5 sequence: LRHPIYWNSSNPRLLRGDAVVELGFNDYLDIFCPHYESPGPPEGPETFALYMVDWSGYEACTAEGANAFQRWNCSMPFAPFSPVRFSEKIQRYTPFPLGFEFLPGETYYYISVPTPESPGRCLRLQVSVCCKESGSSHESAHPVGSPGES

[6] = biological target: T6, mouse Ephrin A5 on transduced WOP cells (mouse) (UniProt O08543)
T6 sequence: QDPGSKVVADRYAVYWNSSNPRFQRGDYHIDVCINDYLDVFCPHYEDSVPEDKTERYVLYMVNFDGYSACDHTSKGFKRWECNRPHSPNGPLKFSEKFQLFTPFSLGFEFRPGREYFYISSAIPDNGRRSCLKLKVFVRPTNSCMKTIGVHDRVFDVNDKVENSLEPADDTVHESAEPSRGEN

[7] = biological target: T7, mouse Ephrin B1 on transduced WOP cells (mouse) (UniProt P52795)
T7 sequence: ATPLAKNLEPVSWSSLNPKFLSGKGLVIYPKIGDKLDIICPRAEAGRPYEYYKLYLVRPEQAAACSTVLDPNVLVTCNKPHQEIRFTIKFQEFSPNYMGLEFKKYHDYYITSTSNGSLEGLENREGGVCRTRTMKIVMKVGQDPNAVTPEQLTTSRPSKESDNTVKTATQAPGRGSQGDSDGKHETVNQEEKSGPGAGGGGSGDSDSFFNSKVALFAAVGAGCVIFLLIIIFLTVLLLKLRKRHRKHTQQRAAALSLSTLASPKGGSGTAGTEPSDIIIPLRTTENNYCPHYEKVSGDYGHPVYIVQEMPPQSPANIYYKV

[8] = biological target: mouse Ephrin B2 on transduced WOP cells (mouse) (UniProt P52800)

“soluble Fc-tagged EphA2 (from UniProt P29317 24-537) (Fc fusion)” was tested, and the binding [1] was “binds”, the binding [2] was “binds” and the binding [3] was “binds”. The binding [4] was “binds”, the binding [5] was “binds” and the binding [6] was “binds”. The binding [7] was “binds weakly” and the binding [8] was “binds weakly”.
